PubChem BioAssay AID1259405, NCATS – 2018

Aim: 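Silenced genes that increase secreted GFP made by CHO cells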 (primary screen)
Cells: Chinese hamster CHO-K1 ovary cells with stable secreted eGFP expression
Knock-down reagent: single siRNA against mouse genes, 0.8 pmol siRNA per well (2 µl of 400 nM stock)
Time to read-out: 3 days
Read-out: 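Percent of the per-plate non-targeting control median for intracellular GFP per well by laser scanning cytometry and for cell viability by ATP luminescence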
Direction: GFP, % of control: higher = more GFP per well, higher productivity; viability (ATP), % of control: higher = more viable cells (more ATP)
Hit rule: 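Called active when intracellular GFP, relative to negative control, is at or above 120%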
Shown is an unselected part of about 50,000 reagents tested. Over the whole deposit, about 4,000 (8%) got an active call. 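Mouse siRNA library applied to hamster cells; one well for each siRNA.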 Entries without a mark were called inactive. The numbers tell different reagents against one gene apart. Reagent sequences are not shown.

| Gene | reagent | GFP, % of control | viability (ATP), % of control |
| --- | --- | --- | --- |
| 1110004F10Rik | 1 | 80.2 | 59.3 |
| 1110004F10Rik | 2 | 57.6 | 69.1 |
| 1110004F10Rik | 3 | 73.5 | 48.8 |
| Snip1 | 1 | 88.8 | 63.3 |
| Snip1 | 2 | 94.2 | 74.9 |
| Snip1 | 3 | 50.7 | 50.4 |
| Fscn2 | 1 | 38.8 | 46.4 |
| Fscn2 | 2 | 55.3 | 68.2 |
| Fscn2 | 3 | 75.1 | 50 |
| Brinp1 | 1 | 70.3 | 81.5 |
| Brinp1 | 2 | 159 (active) | 110 |
| Brinp1 | 3 | 140 (active) | 78.9 |
| Metap1d | 1 | 160 (active) | 118 |
| Metap1d | 2 | 59.5 | 36.2 |
| Metap1d | 3 | 60.3 | 41.8 |
| Ube2d3 | 1 | 98.6 | 61.8 |
| Ube2d3 | 2 | 107 | 60.9 |
| Ube2d3 | 3 | 106 | 114 |
| Bbs2 | 1 | 37.2 | 48 |
| Bbs2 | 2 | 123 (active) | 114 |
| Hk1 | 1 | 54.1 | 40.4 |
| Zfp120 | 1 | 48.1 | 60.3 |
| Zfp120 | 2 | 77.7 | 76.2 |
| Zfp120 | 3 | 42.1 | 70 |
| Ppp4r4 | 1 | 75.5 | 81.3 |
| Ppp4r4 | 2 | 52.6 | 83.7 |
| Ppp4r4 | 3 | 127 (active) | 131 |
| Smpx | 1 | 83.1 | 89.8 |
| Smpx | 2 | 69.3 | 73.4 |
| Smpx | 3 | 64.6 | 74.5 |
| Klhl4 | 1 | 66.5 | 55.7 |
| Klhl4 | 2 | 69.1 | 85.2 |
| Klhl4 | 3 | 84.2 | 80 |
| Ncor2 | 1 | 94 | 87 |
| Ncor2 | 2 | 131 (active) | 99.6 |
| Ccdc172 | 1 | 83 | 80 |
| Ccdc172 | 2 | 80.9 | 105 |
| Ccdc172 | 3 | 93.9 | 92.7 |
| Ube4a | 1 | 14.9 | 56.3 |
| Ube4a | 2 | 96.4 | 99.6 |
| Ube4a | 3 | 64.8 | 63 |
| Tcl1b5 | 1 | 64.5 | 65.1 |
| Tcl1b5 | 2 | 88.8 | 95.9 |
| Tcl1b5 | 3 | 109 | 110 |
| Unc93a | 1 | 109 | 76.4 |
| Unc93a | 2 | 55.5 | 39 |
| Unc93a | 3 | 64.3 | 58.1 |
| Cdc27 | 1 | 95.2 | 105 |
| Cdc27 | 2 | 75.6 | 90.5 |
| Cdc27 | 3 | 126 (active) | 111 |
| Ube2q2 | 1 | 69.9 | 68 |
| Ube2q2 | 2 | 85.1 | 59.8 |
| Ube2q2 | 3 | 92.1 | 118 |
| Tmem80 | 1 | 100 | 77.1 |
| Tmem80 | 2 | 57.2 | 56.6 |
| Tmem80 | 3 | 66.5 | 97.5 |
| Flywch1 | 1 | 80 | 77.7 |
| Flywch1 | 2 | 117 | 80.6 |
| Flywch1 | 3 | 89.6 | 76.3 |
| Cks1b | 1 | 74.7 | 166 |
| Cks1b | 2 | 76.4 | 70.5 |
| Oog2 | 1 | 77.3 | 75 |
| Oog2 | 2 | 85.4 | 73.9 |
| Oog2 | 3 | 58.5 | 53.8 |
| Cyp7b1 | 1 | 101 | 97.7 |
| Cyp7b1 | 2 | 58.6 | 72.5 |
| Cyp7b1 | 3 | 90.8 | 88.2 |
| Vmn1r174 | 1 | 45.3 | 40.7 |
| Vmn1r174 | 2 | 69.5 | 64.5 |
| Vmn1r174 | 3 | 121 (active) | 86.2 |
| Eaf2 | 1 | 67.5 | 70.4 |
| Eaf2 | 2 | 45.1 | 92 |
| Eaf2 | 3 | 159 (active) | 70.4 |
| Cplx4 | 1 | 59.4 | 70.5 |
| Cplx4 | 2 | 69.3 | 79.8 |
| Cplx4 | 3 | 101 | 82.3 |
| Pax3 | 1 | 86.5 | 82 |
| Pax3 | 2 | 74.6 | 83.5 |
| Pax3 | 3 | 67.5 | 48.2 |
| Cyp2d34 | 1 | 93.4 | 62.7 |
| Cyp2d34 | 2 | 67.8 | 81.1 |
| Cyp2d34 | 3 | 77.6 | 79.4 |
| Atad3aos | 1 | 53.7 | 44 |
| Atad3aos | 2 | 99 | 88.2 |
| Atad3aos | 3 | 134 (active) | 82.5 |

Entries listed so far called active:
| Gene | reagent | GFP, % of control | viability (ATP), % of control |
| --- | --- | --- | --- |
| Brinp1 | 2 | 159 (active) | 110 |
| Brinp1 | 3 | 140 (active) | 78.9 |
| Metap1d | 1 | 160 (active) | 118 |
| Bbs2 | 2 | 123 (active) | 114 |
| Ppp4r4 | 3 | 127 (active) | 131 |
| Ncor2 | 2 | 131 (active) | 99.6 |
| Cdc27 | 3 | 126 (active) | 111 |
| Vmn1r174 | 3 | 121 (active) | 86.2 |
| Eaf2 | 3 | 159 (active) | 70.4 |
| Atad3aos | 3 | 134 (active) | 82.5 |
